Drawing on PubChem BioAssay AID2685 (National Center for Advancing Translational Sciences (NCATS), 2010), this text covers cell number change and AC50 for 62 compounds.

Some of the results follow. Shown are side measurements of this screen, not its main read-out; they come without a call. The list favours compounds with an active or inconclusive main result. The note in brackets gives the kind of curve behind each potency; many fits are weak.

A short description of the test: qHTS Assay for Lipid Storage Modulators in Drosophila S3 Cells.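 On cell number change: cells counted by Cell Tracker Red CMTPX staining in the red channel.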 To be noted: BODIPY lipid droplet fluorescence, 18-24 h; for cell number change: measured here: cell count max response, cells fed with added oleic acid. The method in brief: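 Drosophila S3 cells loaded with oleic acid (400 uM, as added) and compounds at several concentrations; lipid droplets imaged by 488-nm laser-scanning cytometry, 500–530 nm intensity and object ratio to cell channel. Percent activity normalized to 20 uM Triacsin C.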
A general note: Quantitative high-throughput screening tests each substance at several concentrations.

Where [1] appears, read: measured here: lipid fluorescence (Fed channel) AC50, cells fed with added oleic acid.
Where [2] appears, read: measured here: cell number channel AC50, cells fed with added oleic acid.

On to `COc1cccc(C(=O)c2c(C)c(CCC#N)n3ccccc23)c1`, for which the cell number change amounted to 16.6%. Moreover, the AC50 (in general, the concentration giving half of the maximal activity seen) under setting [1] was 0.116 µM [falling, partial curve, poor fit].

Take `Cc1ccc(N2CC(C(=O)N3CCN(Cc4ccc5c(c4)OCO5)CC3)CC2=O)cc1` (centres undefined): the cell number change was determined as 2.17%. The AC50 under setting [1] was 0.58 µM [rising, single point].

For `CC1=CC(C)C2(CO)COC(c3ccccc3O)C1C2C` (centres undefined), the cell number change was -30.3%. The AC50 under setting [2] is 29.1 µM [falling, single point].

Take `COc1ccccc1C1Nc2ccccc2NC2=C1C(=O)CC(C)(C)C2` (centres undefined): the concentration at half-maximal activity (AC50) under setting [1] is 0.0411 µM [falling, full curve, poor fit].

With `O=C(c1cc(-c2ccncc2)nc2ccc(Cl)cc12)N1CCN(Cc2ccc3c(c2)OCO3)CC1`, the cell number change came out at 21.8%. For the same compound, the half-maximal activity concentration (AC50) under setting [2] was 0.411 µM [rising, full curve, poor fit].

As for `CCOC(=O)c1ccc(Nc2ccc([N+](=O)[O-])cn2)cc1`, the cell number change was found to be 0.905%. The concentration at half-maximal activity (AC50) under setting [1] is 0.731 µM [falling, full curve, poor fit].

For the compound `Cc1ccc(Cl)cc1N1CCN(S(=O)(=O)N2CCCCC2)CC1`, the cell number change came to 5.55%. Also, the AC50 under setting [1] was 6.51 µM [falling, single point].

For the compound `CCOc1cc(/C=C2\C(=N)N3N=C(CC)SC3=NC2=O)ccc1OCCOc1ccc(NC(C)=O)cc1`, the cell number change was 1.39%. Moreover, under setting [2], the AC50 was 0.58 µM [rising, single point]. In addition, the AC50 under setting [1] was 13 µM [rising, partial curve].

Regarding `Cc1cc(C)n2c(SCC(=O)NC3CCCC(C)C3C)nnc2n1` (centres undefined), the cell number change was 2.03%. For the same compound, under setting [1], the concentration at half-maximal activity (AC50) is 29.1 µM [falling, partial curve, poor fit].

With `COCCN(Cc1cc2cc3c(cc2nc1Cl)OCO3)C(=O)c1cccc(C)c1`, the cell number change was -23.9%. In addition, under setting [1], the AC50 is 23.1 µM [falling, single point].

For `O=C(CSc1nc2ccc(Cl)cc2[nH]1)Nc1ccc2c(c1)CCC2`, the cell number change was -54.4%. For the same compound, under setting [2], the AC50 was 20.6 µM [falling, partial curve]. Moreover, the AC50 under setting [1] was 1.84 µM [falling, partial curve, poor fit].

`CO/N=C/NC(=O)NOCc1c(Cl)cccc1Cl`: the cell number change came out at 17%. Also, the AC50 under setting [2] is 6.51 µM [rising, single point]. In addition, under setting [1], the concentration at half-maximal activity (AC50) is 23.1 µM [rising, partial curve].

Consider `Cc1cc(=O)[nH]c(SCC(=O)Nc2cccc3ccccc23)c1C#N`, for which the cell number change amounted to 17.8%. For the same compound, the AC50 under setting [1] was 6.51 µM [falling, single point].

In the case of `O=C(c1cccc(Cl)c1)N1CCCc2ccccc21`, the cell number change came to 0.88%.

For `C=CCn1c2ccccc2c2nnc(SCCN3CCOCC3)nc21`, the cell number change stood at 18.2%.

As to `O=C(CSCc1ccc([N+](=O)[O-])cc1)NC1CC1`, the cell number change was -8.73%. Besides, the half-maximal activity concentration (AC50) under setting [1] is 1.46 µM [falling, full curve, poor fit].

For `Cc1ccn2c(=O)c(C(=O)NCCN3CCOCC3)c(O)nc2c1`, under setting [1], the half-maximal activity concentration (AC50) was 6.51 µM [falling, single point].

Regarding `COc1ccc(NC2CCCN(C(=O)CCCn3cncn3)C2)cc1OC` (centres undefined), the cell number change is 5.34%.

Take `Cc1ccc(C(=O)/C=C/Nc2ccc(S(=O)(=O)Nc3onc(C)c3C)cc2)cc1`: the cell number change was -19.9%. Under setting [2], the half-maximal activity concentration (AC50) was 2.91 µM [rising, partial curve]. For the same compound, the concentration at half-maximal activity (AC50) under setting [1] is 4.11 µM [falling, single point].

For the compound `COC(=O)c1cnn(-c2ccccc2)c1/C=N/NC(=S)Nc1ccc(Cl)cc1`, the cell number change was 12%. Also, the half-maximal activity concentration (AC50) under setting [1] was 0.231 µM [rising, full curve, poor fit].

For `O=[N+]([O-])c1ccccc1OCCCN1CCc2ccccc2C1`, the cell number change was -2.65%. Also, the concentration at half-maximal activity (AC50) under setting [1] was 0.58 µM [falling, single point].

As for `O=c1n(Cc2ccc(Cl)cc2)c2sc3c(c2c2ncnn12)CCCC3`, the cell number change was -20.8%.

For `COc1ccc(-c2noc(CN(C)C(=O)c3ccoc3C)n2)cc1`, the cell number change amounted to 6.96%.

As to `CCOC(=O)N1CCC(NCCNC(=O)c2cccs2)CC1`, the cell number change amounted to 4.77%. Further, the AC50 under setting [1] is 29.1 µM [rising, single point].

For the compound `CC(C)CC(=O)Nc1sc2c(c1C(=O)O)CCCCC2`, the cell number change was -2.87%. The AC50 under setting [2] is 6.51 µM [falling, single point]. In addition, under setting [1], the AC50 is 6.51 µM [falling, single point].

Regarding `CN(C)c1ccc(Sc2nnc(NC(=O)Nc3ccc(Cl)cc3Cl)s2)cc1`, the cell number change was -6.33%. Also, under setting [1], the half-maximal activity concentration (AC50) is 0.291 µM [falling, full curve].

On to `Cc1ccc(S(=O)(=O)N2CCN(C(=O)CC(C)n3cncn3)CC2)cc1C` (centres undefined), for which the cell number change stood at 1.3%. Besides, the half-maximal activity concentration (AC50) under setting [1] was 0.58 µM [rising, single point].

As to `CCOC(=O)c1c(C)sc2c1N(C(=O)CN1CCOCC1)c1cc(Cl)ccc1S2`, the cell number change stood at 3.23%.

With `Nc1c(C(=O)NCc2ccco2)c2nc3ccccc3nc2n1CCc1ccc(F)cc1`, the cell number change was -4.49%. Also, the AC50 under setting [2] was 2.06 µM [rising, partial curve]. Moreover, under setting [1], the AC50 is 1.16 µM [rising, full curve].

For the compound `Cn1c(=NC(=O)C2CC2)sc2cccc(F)c21`, the cell number change was determined as 6.5%. Besides, the AC50 under setting [1] is 4.61 µM [rising, full curve].

As for `CCOC(=O)COc1ccc(Cl)cc1C1NC(=O)NC(C)=C1C(C)=O` (centres undefined), the cell number change amounted to 40.7%. The half-maximal activity concentration (AC50) under setting [2] is 2.31 µM [rising, partial curve].

On to `COCCCNC(=O)c1cc(OC)c(OC)c(OC)c1`, for which the AC50 under setting [1] is 20.6 µM [falling, partial curve].

On to `COc1ccc(C(=O)N2CCCC(c3nc(-c4ccc(OC)c(OC)c4)no3)C2)c(OC)c1` (centres undefined), for which the cell number change was -6.89%.

On to `CN(Cc1ccccc1)C(=S)NC(=O)c1cccs1`, for which the cell number change was -10.4%. Moreover, under setting [1], the AC50 was 0.651 µM [falling, partial curve, poor fit].

For the compound `CCN1C(=O)[C@H]2[C@@H](c3ccc(-c4ccc(OC)cc4)cc3)N[C@@](C)(C(=O)OC)[C@H]2C1=O`, the cell number change worked out at 14.3%.

As to `Cc1ccc(C(C(=O)Nc2ccc(C(C)C)cc2)N(C)C(=O)c2ccc(=O)[nH]c2)cc1` (centres undefined), the cell number change is -3.37%. The AC50 under setting [1] is 0.00517 µM [falling, full curve, poor fit].

With `CCOc1ccc(/C=C2/Sc3ccc(C(=O)N4CCOCC4)cc3N(C)C2=O)cc1OC`, the AC50 under setting [1] was 29.1 µM [falling, single point].

In the case of `COc1ccc(C)cc1N(C(=O)c1snc(C(N)=O)c1N)C(C(=O)NC1CCCC1)c1ccc(F)cc1` (centres undefined), the cell number change is 8.7%.

Regarding `COc1ccc(C(=O)Nc2cccnc2)cc1S(=O)(=O)N1CCOCC1`, the cell number change is -17%.

Take `CS(=O)(=O)N(CC(=O)Nc1ccc(Br)cc1)C1CCCCC1`: the cell number change was -24%. For the same compound, the concentration at half-maximal activity (AC50) under setting [1] was 0.92 µM [falling, partial curve].

On to `COc1ccc(N2CCN(CC(O)COc3ccc([N+](=O)[O-])cc3)CC2)cc1` (centres undefined), for which the cell number change worked out at 0.746%. The half-maximal activity concentration (AC50) under setting [1] is 2.59 µM [rising, single point].

Consider `CC1(c2nnc(-c3ccccc3)o2)CC(c2ccncc2)=NO1` (centres undefined), for which the cell number change is 18.6%. Further, the concentration at half-maximal activity (AC50) under setting [1] is 8.2 µM [rising, single point].

For the compound `O=C(c1cc(-c2ccco2)on1)N1CCCc2ccccc21`, the cell number change turned out to be 18.5%. The AC50 under setting [1] was 2.31 µM [rising, partial curve].

For the compound `O=c1cc(-c2ccccc2)nc2nc(-c3ccccc3)[nH]n12`, the cell number change is -51.1%. Besides, the AC50 under setting [2] was 25.9 µM [falling, single point]. Besides, the AC50 under setting [1] was 0.651 µM [falling, single point].

In the case of `CN(C)C(=O)COC(=O)c1ccccc1Nc1ccc(SC(F)F)cc1`, the cell number change is -29%.

As for `O=S(=O)(c1ccc(Br)s1)N1CCN(CCOc2ccccc2)CC1`, the cell number change was found to be 5.76%. For the same compound, the AC50 under setting [1] was 0.00517 µM [rising, full curve].

On to `CNC(=O)/C(C#N)=C/c1c(N(Cc2ccccc2)Cc2ccccc2)nc2c(C)cccn2c1=O`, for which the cell number change was -18.6%. Further, the half-maximal activity concentration (AC50) under setting [1] is 29.1 µM [falling, single point].

Turning to `CCCn1c(/N=C/c2ccc3c(c2)OCO3)nc2ccccc21`, the cell number change is -4.45%.

Turning to `COCC(=O)N(C)C1(c2nnnn2CCOC(=O)Nc2ccc(Cl)cc2)CCCCC1`, the cell number change amounted to 51.7%.

As for `COc1cccc(CCC(=O)N(C)C2CCCN(Cc3ccccc3F)C2)c1` (centres undefined), the cell number change is -14.3%. In addition, under setting [1], the AC50 is 4.11 µM [falling, single point].

Regarding `CC(NC(=O)c1cc(S(=O)(=O)N(C)C)ccc1N1CCCC1)C1CC2CCC1C2` (centres undefined), the cell number change is 15.7%.

As to `CCOC(=O)c1cnc2c(C#N)cnn2c1N`, the cell number change is -10.3%. Further, the AC50 under setting [1] is 6.51 µM [rising, single point].

With `O=C1C2ON(c3ccccc3)C(c3ccncc3)C2C(=O)N1c1ccc(N2CCOCC2)cc1` (centres undefined), the cell number change is -32.8%. Besides, the AC50 under setting [2] is 9.2 µM [falling, partial curve, poor fit]. Further, under setting [1], the concentration at half-maximal activity (AC50) is 29.1 µM [falling, single point].

With `Cc1cc(C)nc(SCc2ccc(C(=O)N/N=C/c3cccnc3)cc2)n1`, the cell number change is -8.2%. The AC50 under setting [2] is 0.058 µM [rising, full curve, poor fit]. Also, the AC50 under setting [1] is 6.51 µM [rising, partial curve, poor fit].

For `CN(C)S(=O)(=O)c1ccc(C(=O)Nc2nnc(-c3ccco3)o2)cc1`, the cell number change stood at 3.82%. The half-maximal activity concentration (AC50) under setting [1] was 6.51 µM [falling, single point].

Consider `CCc1cc(Cn2nc(C(=O)O)cc2-c2ccccc2)on1`, for which the cell number change is -15.3%. Moreover, the AC50 under setting [1] is 6.51 µM [rising, single point].

As to `COc1cc(NC(=S)N2CCN(C(c3ccccc3)c3ccccc3)CC2)cc(OC)c1`, the AC50 under setting [2] was 0.092 µM [rising, full curve, poor fit].

For `C/C(=N\Nc1ccccn1)c1ccc(S(=O)(=O)NCc2ccco2)cc1`, the cell number change was -5.05%. Also, the half-maximal activity concentration (AC50) under setting [1] was 0.731 µM [falling, partial curve, poor fit].

As to `O=C1Cc2ccccc2C(=O)N1c1ccc(F)cc1Cl`, the cell number change is 29.3%. The AC50 under setting [1] was 29.1 µM [falling, single point].

For the compound `COc1cccc(OC)c1C(=O)Nc1c(C)n(C)n(-c2ccccc2)c1=O`, the cell number change was -60.7%. The AC50 under setting [2] was 29.1 µM [falling, single point].

For `CC(C)(C)c1ccc(S(=O)(=O)N2CCC(N3CCCCC3)CC2)cc1`, the cell number change turned out to be 26.1%. For the same compound, under setting [1], the half-maximal activity concentration (AC50) was 29.1 µM [rising, single point].

As for `O=C1OC(=O)C2C1[C@@H]1CC[C@H]2O1` (some centres undefined), the cell number change was -0.902%. Moreover, the AC50 under setting [1] was 0.517 µM [falling, full curve, poor fit].
